In patent publication US6537522B1, “Neuroprobes for mapping monoamine reuptake sites” (Amersham PLC, priority 1992, dated 2003):
At least one compound was matched to its structure with a doubt left.

Sequences of proteins named here, by UniProt entry; tags and fusion partners are left off. Residues count along the entry.
UniProt A0A096MN61, 1-620: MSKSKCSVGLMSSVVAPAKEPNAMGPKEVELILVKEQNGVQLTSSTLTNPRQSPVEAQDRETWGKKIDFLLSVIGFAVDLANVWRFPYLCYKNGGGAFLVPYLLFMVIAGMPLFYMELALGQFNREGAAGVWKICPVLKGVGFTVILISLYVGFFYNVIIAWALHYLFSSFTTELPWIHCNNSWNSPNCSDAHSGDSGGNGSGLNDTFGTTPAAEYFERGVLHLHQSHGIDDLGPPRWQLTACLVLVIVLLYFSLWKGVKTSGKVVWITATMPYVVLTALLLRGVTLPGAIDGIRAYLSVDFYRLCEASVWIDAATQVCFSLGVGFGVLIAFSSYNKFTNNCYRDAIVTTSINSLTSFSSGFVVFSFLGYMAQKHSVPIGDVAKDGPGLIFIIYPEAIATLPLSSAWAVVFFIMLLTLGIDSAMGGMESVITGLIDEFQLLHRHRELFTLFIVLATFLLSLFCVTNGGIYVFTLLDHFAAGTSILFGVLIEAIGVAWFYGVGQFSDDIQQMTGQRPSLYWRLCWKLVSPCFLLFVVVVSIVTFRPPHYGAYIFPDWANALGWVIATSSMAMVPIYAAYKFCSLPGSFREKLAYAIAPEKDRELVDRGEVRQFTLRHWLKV

Biological target: dopamine reuptake sites (Papio anubis, UniProt A0A096MN61)
Assay: displacement of [3H]CFT binding in primate striatum tissue homogenates
Parameters: species or system baboon
Details: mean ± SEM (n)
Text: Values represent means±SEM (of n experiments).

Compound: COC(=O)[C@H]1[C@@H](OC(=O)c2ccccc2)C[C@@H]2CC[C@H]1N2C [compound 1, cocaine, reference compound]
- displacement of [3H]CFT Hill slope (nH): 0.69 ± 0.06 (3)
